From article PMC5437272
No constants are given. Whether binding was seen depends on the method and setting. Binding seen in cells or lysates may run through a third protein. Here binding means that the protein was enriched with, or labelled near, the bait; the list need not be complete.

Chains of the proteins cited; added tags and fusions are not shown. Lines headed by an entry give the natural chain unless they say otherwise; changes in a name come on top. Residues count along the entry.
UniProt Q9DCB8: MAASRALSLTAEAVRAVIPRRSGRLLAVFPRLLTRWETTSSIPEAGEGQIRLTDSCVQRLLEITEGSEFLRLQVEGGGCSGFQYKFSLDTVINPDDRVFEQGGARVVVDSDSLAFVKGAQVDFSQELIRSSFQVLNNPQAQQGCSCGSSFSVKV
UniProt Q6P4F2, residues 53-183: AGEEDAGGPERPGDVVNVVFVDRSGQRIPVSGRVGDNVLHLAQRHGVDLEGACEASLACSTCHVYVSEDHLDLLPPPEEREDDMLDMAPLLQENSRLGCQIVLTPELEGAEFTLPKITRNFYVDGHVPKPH

Biological target: ISCA2-Flag (mouse ISCA2 with a C-terminal Flag epitope) (mouse) (UniProt Q9DCB8)
Test: affinity purification with mass spectrometry; Flag M2 resin IP from mitochondria-enriched extracts of HeLa cells expressing one C-terminally Flag-tagged mouse bait; crude eluates analysed by MudPIT; partners enriched 10 x over control IP and mitochondrial input; three biological replicates

“FDX2 (endogenous, HeLa) (from UniProt Q6P4F2 53-183)” was tested, and the binding was “binds weakly”.
